Binding data for one substance are collected here from patent publication US20120277144A1.

The chains behind the UniProt entries cited, without tags or fusion partners. Residues count along the entry.
UniProt P60953, residues 1-188: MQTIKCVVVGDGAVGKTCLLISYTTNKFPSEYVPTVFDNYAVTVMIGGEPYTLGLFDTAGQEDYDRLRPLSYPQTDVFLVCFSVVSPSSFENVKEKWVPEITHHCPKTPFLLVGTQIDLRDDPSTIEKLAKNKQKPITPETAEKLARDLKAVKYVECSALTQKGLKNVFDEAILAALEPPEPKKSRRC
UniProt Q6ZNL6: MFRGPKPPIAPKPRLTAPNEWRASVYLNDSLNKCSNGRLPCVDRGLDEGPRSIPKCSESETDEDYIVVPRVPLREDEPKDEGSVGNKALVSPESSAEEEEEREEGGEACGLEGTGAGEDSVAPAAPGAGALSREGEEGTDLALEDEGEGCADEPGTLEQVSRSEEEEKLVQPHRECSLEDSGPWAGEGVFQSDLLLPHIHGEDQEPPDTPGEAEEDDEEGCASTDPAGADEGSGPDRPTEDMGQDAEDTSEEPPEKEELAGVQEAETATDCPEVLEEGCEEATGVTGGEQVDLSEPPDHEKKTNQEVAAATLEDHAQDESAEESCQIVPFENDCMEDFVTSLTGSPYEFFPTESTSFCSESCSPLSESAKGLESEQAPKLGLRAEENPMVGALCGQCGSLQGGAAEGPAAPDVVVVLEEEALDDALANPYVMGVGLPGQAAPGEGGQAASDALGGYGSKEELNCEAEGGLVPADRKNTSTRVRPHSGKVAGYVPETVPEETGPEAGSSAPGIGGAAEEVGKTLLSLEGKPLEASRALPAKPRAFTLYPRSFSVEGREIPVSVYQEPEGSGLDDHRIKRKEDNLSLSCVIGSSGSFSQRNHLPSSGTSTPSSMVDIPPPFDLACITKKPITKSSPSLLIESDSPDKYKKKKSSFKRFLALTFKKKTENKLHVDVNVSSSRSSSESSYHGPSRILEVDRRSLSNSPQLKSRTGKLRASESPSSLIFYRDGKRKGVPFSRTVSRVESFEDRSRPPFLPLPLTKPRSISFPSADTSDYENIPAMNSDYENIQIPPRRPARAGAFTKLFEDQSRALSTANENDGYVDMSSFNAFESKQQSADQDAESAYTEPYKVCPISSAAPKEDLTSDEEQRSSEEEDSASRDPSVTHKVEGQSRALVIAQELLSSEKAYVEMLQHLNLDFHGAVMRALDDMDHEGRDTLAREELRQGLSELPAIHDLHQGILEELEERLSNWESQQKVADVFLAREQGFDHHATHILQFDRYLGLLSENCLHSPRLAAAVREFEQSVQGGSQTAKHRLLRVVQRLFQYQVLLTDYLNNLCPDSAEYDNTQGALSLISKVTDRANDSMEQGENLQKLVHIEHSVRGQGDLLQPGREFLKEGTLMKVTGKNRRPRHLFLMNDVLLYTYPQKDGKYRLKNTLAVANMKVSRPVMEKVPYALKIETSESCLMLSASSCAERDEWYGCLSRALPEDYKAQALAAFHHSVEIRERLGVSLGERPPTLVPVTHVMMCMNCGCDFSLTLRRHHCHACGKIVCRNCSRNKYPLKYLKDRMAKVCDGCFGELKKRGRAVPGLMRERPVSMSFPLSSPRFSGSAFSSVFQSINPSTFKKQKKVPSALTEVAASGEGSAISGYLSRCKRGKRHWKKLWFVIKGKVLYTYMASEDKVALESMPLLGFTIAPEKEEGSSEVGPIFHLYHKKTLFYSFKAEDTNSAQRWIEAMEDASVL

These are yes or no findings as the source states them, for the method shown. In cells and extracts the contact can be indirect. Some entries that bind do so weakly or less than the wild type.

The target in this experiment is cdc42 (human) (UniProt P60953). In words: co-immunoprecipitation with anti-FGD5 antibody from lysates of FGD5 overexpressing HUVECs, western blot. On the technique in general: Immunoblotting shows a protein as a band on a membrane.

Regarding “FYVE, RhoGEF and PH domain-containing 5 (FGD5) (from UniProt Q6ZNL6 1-1462) (enzyme)”, the binding result is listed as “binds”.
